The supplement of paper PMC12067093, “Discovery and optimisation of a covalent ligand for TRIM25 and its application to targeted protein ubiquitination” (Chemical Science, 2025)
This is one part of the list.

Chains of the proteins cited; added tags and fusions are not shown. Lines headed by an entry give the natural chain unless they say otherwise; changes in a name come on top.
UniProt Q7L014: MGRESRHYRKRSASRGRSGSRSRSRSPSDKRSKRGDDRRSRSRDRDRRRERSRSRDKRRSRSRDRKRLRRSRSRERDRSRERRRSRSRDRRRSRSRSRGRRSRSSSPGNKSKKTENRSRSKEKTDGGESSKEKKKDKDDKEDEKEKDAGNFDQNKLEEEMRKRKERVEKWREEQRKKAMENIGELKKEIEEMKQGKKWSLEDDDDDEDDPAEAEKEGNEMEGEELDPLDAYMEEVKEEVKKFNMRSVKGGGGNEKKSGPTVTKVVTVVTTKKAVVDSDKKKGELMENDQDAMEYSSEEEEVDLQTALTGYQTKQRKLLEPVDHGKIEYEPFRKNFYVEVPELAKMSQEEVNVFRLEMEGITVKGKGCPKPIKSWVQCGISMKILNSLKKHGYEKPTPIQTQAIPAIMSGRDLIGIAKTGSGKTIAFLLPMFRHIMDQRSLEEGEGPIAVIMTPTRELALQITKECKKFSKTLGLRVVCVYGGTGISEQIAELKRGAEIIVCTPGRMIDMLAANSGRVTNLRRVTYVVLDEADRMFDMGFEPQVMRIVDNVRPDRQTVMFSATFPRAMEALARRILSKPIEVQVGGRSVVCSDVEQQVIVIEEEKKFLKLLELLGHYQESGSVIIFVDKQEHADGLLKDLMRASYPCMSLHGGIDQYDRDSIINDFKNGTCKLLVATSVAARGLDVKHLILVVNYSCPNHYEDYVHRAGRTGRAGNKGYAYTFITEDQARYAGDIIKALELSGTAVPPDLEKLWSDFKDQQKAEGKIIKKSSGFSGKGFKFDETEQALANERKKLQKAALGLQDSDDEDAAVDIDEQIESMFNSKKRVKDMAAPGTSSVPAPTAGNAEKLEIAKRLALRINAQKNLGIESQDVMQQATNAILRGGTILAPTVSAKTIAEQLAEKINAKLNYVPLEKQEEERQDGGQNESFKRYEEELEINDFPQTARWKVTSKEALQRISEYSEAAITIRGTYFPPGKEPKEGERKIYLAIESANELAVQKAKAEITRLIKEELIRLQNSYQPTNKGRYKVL
UniProt A2RUS2: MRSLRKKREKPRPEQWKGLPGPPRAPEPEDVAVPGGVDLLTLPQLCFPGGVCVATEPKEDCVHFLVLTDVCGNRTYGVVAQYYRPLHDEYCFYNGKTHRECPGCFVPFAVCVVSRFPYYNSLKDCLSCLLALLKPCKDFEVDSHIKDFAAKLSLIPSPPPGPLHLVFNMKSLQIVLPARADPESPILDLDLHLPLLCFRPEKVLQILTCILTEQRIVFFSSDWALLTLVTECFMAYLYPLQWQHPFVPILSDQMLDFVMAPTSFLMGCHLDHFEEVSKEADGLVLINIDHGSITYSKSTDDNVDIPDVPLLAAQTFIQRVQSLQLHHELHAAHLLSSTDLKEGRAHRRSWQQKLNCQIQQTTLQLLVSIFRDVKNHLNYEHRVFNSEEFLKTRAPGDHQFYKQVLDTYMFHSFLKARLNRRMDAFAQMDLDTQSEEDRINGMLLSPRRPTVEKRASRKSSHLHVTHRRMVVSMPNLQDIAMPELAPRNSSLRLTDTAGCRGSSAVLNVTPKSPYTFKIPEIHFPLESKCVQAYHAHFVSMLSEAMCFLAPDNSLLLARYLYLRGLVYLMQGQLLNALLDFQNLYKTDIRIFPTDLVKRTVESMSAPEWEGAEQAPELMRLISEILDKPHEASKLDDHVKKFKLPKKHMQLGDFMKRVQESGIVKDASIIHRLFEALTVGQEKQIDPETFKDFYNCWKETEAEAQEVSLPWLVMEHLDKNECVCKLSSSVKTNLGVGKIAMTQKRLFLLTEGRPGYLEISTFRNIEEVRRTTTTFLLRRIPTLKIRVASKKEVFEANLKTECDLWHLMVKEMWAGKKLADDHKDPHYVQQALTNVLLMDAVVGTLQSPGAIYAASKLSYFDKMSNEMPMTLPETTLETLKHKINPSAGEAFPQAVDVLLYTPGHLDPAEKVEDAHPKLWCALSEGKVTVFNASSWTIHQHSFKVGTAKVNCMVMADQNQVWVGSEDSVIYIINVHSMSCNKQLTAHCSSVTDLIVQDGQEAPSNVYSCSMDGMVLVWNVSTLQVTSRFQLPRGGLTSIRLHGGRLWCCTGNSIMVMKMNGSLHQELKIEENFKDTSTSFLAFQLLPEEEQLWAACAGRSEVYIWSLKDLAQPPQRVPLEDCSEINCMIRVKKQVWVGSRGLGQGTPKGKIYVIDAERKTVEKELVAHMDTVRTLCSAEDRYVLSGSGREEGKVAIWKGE
UniProt Q92499: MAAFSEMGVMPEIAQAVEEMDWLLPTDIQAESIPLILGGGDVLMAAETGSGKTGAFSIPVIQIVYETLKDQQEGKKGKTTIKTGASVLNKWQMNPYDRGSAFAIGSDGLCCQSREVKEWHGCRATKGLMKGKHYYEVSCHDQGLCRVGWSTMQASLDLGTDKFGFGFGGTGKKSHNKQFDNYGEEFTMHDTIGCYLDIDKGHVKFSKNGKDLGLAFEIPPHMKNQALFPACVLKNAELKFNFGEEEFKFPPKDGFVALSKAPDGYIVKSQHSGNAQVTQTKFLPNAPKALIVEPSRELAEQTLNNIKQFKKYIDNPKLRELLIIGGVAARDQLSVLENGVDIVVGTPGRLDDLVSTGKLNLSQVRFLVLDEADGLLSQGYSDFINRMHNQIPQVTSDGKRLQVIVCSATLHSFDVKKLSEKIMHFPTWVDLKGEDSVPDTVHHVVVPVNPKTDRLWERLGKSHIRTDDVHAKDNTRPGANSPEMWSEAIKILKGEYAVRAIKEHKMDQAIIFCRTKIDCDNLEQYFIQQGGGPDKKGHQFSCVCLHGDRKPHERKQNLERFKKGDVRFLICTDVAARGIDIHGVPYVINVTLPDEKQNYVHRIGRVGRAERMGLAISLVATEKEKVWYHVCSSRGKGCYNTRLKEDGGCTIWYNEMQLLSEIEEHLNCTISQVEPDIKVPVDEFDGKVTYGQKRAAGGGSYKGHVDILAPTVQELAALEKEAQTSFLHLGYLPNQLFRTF
UniProt Q5H9U9: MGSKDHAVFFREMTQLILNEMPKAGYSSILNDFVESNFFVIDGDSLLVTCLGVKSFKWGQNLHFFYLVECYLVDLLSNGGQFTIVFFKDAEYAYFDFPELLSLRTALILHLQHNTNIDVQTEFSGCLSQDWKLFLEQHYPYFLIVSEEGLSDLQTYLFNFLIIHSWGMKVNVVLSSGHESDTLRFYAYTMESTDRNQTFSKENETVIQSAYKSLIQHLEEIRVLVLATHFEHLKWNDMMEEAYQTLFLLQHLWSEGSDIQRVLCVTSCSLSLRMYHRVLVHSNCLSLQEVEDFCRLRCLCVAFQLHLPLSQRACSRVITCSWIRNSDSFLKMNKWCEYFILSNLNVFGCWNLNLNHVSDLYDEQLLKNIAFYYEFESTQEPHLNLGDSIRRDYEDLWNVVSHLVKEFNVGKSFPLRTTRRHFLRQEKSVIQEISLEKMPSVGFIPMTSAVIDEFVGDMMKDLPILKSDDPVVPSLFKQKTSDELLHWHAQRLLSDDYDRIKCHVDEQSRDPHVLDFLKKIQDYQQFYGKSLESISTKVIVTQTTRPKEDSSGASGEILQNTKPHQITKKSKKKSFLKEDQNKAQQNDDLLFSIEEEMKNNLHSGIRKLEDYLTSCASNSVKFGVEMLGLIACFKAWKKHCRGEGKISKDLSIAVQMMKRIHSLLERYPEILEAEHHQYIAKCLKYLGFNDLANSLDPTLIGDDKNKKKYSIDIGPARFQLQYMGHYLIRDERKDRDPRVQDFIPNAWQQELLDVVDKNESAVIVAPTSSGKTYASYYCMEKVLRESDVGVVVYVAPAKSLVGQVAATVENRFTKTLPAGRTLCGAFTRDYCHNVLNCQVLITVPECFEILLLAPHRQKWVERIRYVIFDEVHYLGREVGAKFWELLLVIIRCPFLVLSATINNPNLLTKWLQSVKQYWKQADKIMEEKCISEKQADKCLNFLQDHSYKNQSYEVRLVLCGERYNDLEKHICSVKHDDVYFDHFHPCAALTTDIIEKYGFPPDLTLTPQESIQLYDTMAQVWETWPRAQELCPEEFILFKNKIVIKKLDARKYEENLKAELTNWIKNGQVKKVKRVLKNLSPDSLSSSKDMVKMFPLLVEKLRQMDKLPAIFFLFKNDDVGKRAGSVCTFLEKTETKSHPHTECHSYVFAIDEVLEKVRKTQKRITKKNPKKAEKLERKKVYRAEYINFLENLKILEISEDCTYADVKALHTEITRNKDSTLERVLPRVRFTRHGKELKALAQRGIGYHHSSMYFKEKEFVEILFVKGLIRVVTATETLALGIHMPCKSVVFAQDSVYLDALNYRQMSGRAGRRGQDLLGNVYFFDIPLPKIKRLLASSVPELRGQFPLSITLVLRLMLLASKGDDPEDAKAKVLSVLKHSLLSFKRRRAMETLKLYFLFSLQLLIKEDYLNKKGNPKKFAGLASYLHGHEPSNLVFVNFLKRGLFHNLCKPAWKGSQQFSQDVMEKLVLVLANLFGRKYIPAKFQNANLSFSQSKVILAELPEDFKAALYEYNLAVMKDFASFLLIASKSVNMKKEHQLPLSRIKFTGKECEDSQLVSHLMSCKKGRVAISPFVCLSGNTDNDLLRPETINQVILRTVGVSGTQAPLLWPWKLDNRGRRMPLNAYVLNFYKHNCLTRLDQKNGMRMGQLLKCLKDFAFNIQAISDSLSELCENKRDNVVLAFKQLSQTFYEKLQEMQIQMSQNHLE
UniProt O75064: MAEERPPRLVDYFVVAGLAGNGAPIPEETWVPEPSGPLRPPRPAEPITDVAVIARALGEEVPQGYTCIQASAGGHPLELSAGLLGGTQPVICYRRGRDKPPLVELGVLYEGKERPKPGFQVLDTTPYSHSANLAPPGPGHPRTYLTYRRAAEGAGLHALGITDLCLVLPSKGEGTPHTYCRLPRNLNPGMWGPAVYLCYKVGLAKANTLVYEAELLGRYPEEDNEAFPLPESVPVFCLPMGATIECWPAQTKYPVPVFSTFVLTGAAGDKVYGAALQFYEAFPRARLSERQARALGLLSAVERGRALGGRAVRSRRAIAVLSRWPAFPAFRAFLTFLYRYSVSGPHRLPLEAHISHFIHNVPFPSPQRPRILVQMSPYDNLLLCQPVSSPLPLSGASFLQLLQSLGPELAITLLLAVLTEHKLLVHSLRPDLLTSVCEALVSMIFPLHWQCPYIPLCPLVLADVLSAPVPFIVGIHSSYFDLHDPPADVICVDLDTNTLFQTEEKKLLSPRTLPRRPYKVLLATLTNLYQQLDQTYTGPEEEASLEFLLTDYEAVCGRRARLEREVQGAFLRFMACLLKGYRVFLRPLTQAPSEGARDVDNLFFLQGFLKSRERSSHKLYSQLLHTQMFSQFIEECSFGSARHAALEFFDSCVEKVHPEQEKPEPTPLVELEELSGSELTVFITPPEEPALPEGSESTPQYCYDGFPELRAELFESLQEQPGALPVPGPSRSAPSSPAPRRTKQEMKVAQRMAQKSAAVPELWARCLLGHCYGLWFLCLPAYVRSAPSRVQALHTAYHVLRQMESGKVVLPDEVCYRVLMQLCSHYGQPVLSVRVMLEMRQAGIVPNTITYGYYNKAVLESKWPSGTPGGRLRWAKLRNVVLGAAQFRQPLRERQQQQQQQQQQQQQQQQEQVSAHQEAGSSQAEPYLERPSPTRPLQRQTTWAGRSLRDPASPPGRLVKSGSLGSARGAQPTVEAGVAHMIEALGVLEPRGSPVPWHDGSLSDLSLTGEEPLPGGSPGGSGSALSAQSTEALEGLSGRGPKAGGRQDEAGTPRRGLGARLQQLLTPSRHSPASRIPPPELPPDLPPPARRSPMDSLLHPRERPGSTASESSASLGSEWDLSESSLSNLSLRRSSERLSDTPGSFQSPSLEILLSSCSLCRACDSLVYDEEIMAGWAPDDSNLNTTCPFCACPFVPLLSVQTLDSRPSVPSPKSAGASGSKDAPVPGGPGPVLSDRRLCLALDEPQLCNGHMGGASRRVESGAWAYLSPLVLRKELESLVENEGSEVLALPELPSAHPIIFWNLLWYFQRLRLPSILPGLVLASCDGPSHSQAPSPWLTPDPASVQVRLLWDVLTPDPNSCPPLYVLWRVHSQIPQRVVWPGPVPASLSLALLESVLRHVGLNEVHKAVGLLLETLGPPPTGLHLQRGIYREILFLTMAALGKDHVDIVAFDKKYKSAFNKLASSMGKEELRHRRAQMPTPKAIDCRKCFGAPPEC
UniProt O00148, whole entry, looked up: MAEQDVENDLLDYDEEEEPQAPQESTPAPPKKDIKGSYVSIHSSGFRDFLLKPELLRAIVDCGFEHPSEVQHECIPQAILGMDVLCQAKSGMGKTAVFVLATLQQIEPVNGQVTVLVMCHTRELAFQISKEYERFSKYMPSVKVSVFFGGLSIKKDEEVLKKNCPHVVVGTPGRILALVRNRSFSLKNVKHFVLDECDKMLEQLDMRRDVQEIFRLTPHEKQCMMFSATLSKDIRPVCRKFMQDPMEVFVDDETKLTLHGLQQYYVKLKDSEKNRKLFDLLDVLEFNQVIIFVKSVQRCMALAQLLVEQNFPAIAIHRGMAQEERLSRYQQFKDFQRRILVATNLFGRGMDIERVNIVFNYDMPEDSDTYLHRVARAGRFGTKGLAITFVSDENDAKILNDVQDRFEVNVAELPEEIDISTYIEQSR

Compound: Cc1cc(ccc1-c1ccccc1)C(=O)N1CCCN(CC1)C(=O)CCl [compound 10]
Assay: probe-labelled cysteine peptide fold change vs DMSO (competition) (log2 fold change); higher = less target engagement (more negative = stronger competition)
Conditions: THP-1, incubation time: 4 h
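Further: competitive profiling in live THP-1 cells: cysteine peptides tagged with an iodoacetamide desthiobiotin (IA-DTB) probe, intensity after compound treatment relative to DMSO-treated cells.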

Target | probe-labelled cysteine peptide fold change (10 µM) | probe-labelled cysteine peptide fold change (50 µM)
DDX21_Q9NR30_418_CHWTQR (UniProt Q9NR30) | 0.219 | 0.343
DDB1_Q16531_725+732_KICYQEVSQCFGVLSSR (UniProt Q16531) | -0.0943 | -0.169
DDX46_Q7L014_501_GAEIIVCTPGR (UniProt Q7L014) | 0.149 | -0.0069
DENND3_A2RUS2_695_DFYNCWK (UniProt A2RUS2) | -0.0442 | -0.28
DDX24_Q9GZR7_639_LEDCVLLATDVAAR (UniProt Q9GZR7) | 0.213 | 0.377
DDX46_Q7L014_501_RGAEIIVCTPGR (UniProt Q7L014) | 0.189 | 0.403
DDX3X_O00571_468_GADSLEDFLYHEGYACTSIHGDR (UniProt O00571) | 0.113 | 0.119
DENR_O43583_13_AADISESSGADCK (UniProt O43583) | -0.127 | -0.381
DDX3Y_O15523_62_DSSGWSCSK (UniProt O15523) | -0.368 | -0.59
DDX18_Q9NVP1_329_NLQCLVIDEADRILDVGFEEELK (UniProt Q9NVP1) | 0.153 | -0.181
DDX17_Q92841_166_GGDVCPK (UniProt Q92841) | 0.0712 | 0.22
DDX52_Q9Y2R4_342_TGFRDQLASIFLACTSHK (UniProt Q9Y2R4) | 0.00973 | 0.189
DDX1_Q92499_122_EWHGCR (UniProt Q92499) | -0.136 | -0.0348
DGKZ_Q13574_876_EASVPLGTVVVPGDSDLELCR (UniProt Q13574) | 0.00657 | 0.818
DGKD_Q16760_596_LVASACPARPQIFRPR (UniProt Q16760) | -0.17 | 0.0044
DDOST_P39656_145_ELGSECGIEFDEEK (UniProt P39656) | -0.057 | 0.292
DEPDC1B_Q8WUY9_43_SYEHCFTAAEAVDWLHELLR (UniProt Q8WUY9) | 0.101 | 0.0359
DDX20_Q9UHI6_758_LQTEAQEDDWYDCHR (UniProt Q9UHI6) | -0.158 | -0.439
DDX60L_Q5H9U9_502_CHVDEQSR (UniProt Q5H9U9) | -0.375 | -0.943

Target | probe-labelled cysteine peptide fold change (10 µM) | probe-labelled cysteine peptide fold change (50 µM)
DDB1_Q16531_260_QSTIVCHNR (UniProt Q16531) | 0.123 | 0.0811
DDX5_P17844_221_GVEICIATPGR (UniProt P17844) | 0.578 | 0.211
DECR2_Q9NUI1_22_HLFCPDLLR (UniProt Q9NUI1) | -0.0692 | -0.35
DDX50_Q9BQ39_242_LSVACFYGGTSYQSQINHIR (UniProt Q9BQ39) | 0.333 | -0.294
DENND3_A2RUS2_128_DCLSCLLALLK (UniProt A2RUS2) | -0.0541 | -0.0692
DENND4B_O75064_180_GEGTPHTYCR (UniProt O75064) | 0.245 | 0.105
DDX20_Q9UHI6_577_EALPVSLPQIPCLSSFK (UniProt Q9UHI6) | -0.231 | -0.487
DENND4C_Q5VZ89_1211_EDVETGLDPLSLLATECTGGK (UniProt Q5VZ89) | -0.234 | -0.0261
DGKZ_Q13574_697_VVCDGMDLTPK (UniProt Q13574) | 0.0849 | -0.0655
DDX60L_Q5H9U9_1449_GLFHNLCK (UniProt Q5H9U9) | -0.2 | 0.212
DENND4B_O75064_652_HAALEFFDSCVEK (UniProt O75064) | 0.0262 | 0.235
DDX39A_O00148_223_QCMMFSATLSK (UniProt O00148) | -0.0178 | -0.165
DDX1_Q92499_519_TKIDCDNLEQYFIQQGGGPDK (UniProt Q92499) | -0.159 | -0.326
DDX31_Q9H8H2_464_AVQEVCPPPAGDK (UniProt Q9H8H2) | 0.042 | 0.476
DDX17_Q92841_166+199_GGDVCPKPVFAFHHANFPQYVMDVLMDQHFTEPTPIQCQGFPLALSGR (UniProt Q92841) | -0.28 | -1.05
DHRS7B_Q6IAN0_220_HATQAFFDCLR (UniProt Q6IAN0) | -0.0211 | 0.0381
DDX27_Q96GQ7_357_LIDHLHNCPSFHLSSIEVLILDEADR (UniProt Q96GQ7) | 0.376 | 0.122
DEAF1_O75398_401_ASHPEPHYPGYQDSCQIAPFPEAALPTSHPK (UniProt O75398) | -0.0422 | -0.0163
